Some of the results follow.
Assay: insulin gene promoter suppression in islet cells – imaging, TRM-6 cells (human fetal islet line), eGFP reporter, cell count, primary screen (AID 1273;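 further: cells exposed to compound for 48 h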)
Conditions: measured here: cell count, toxicity, at 2 µM, reporter expression induced with tamoxifen

Row | SMILES | normalized cell count [%]
1 | COc1ccc(N/C(=N/P(=O)(N2CCOCC2)N2CCOCC2)N2CCOCC2)cc1 | 136
2 | Cc1c2c(nc3ccccc13)SC(C(Cl)Cl)C2 (configuration not stated) | 116
3 | O=C(OC1CN2CCC1CC2)C12CC3CC(CC(C3)C1)C2 (configuration not stated) | 153
4 | CCN(CC)CCCOC(=O)C(O)(c1ccccc1)c1ccccc1 | 148
5 | Cc1cc(=O)[nH]c(N[N+](=O)[O-])n1 | 126
6 | COc1ccc2nc(NP(=O)(c3ccccc3)c3ccccc3)sc2c1 | 143
7 | CCOC(=O)c1ccc(NP(C)(=O)Oc2ccccc2)cc1 (configuration not stated) | 207
8 | ClCCSc1nnc(-c2cccnc2)o1 | 130
9 | CCN(CC)C(=S)SC(NC=O)C(Cl)(Cl)Cl (configuration not stated) | 135
10 | COc1ccc(OP(C)(=O)Nc2cccc(F)c2)cc1 (configuration not stated) | 118
11 | CC(C)(C)c1ccc(OP(C)(=O)Nc2ccc(SC(F)(F)F)cc2)cc1 (configuration not stated) | 116
12 | Cc1ccc2nc3c(c(C)c2c1)CC(C(Cl)Cl)S3 (configuration not stated) | 81
13 | CP(=S)(Nn1cnnc1)Oc1ccccc1 (configuration not stated) | 95.4
14 | COc1ccccc1OP(C)(=O)Nc1ccccc1 (configuration not stated) | 109
15 | CP(=O)(Nc1ccccc1Br)Oc1ccccc1 (configuration not stated) | 104
16 | CCOP(C)(=S)SCC(=O)NC(C)C(=O)O (configuration not stated) | 101
17 | CCOC(=O)c1ccc(NP(C)(=O)Oc2ccc(OC)cc2)cc1 (configuration not stated) | 118
18 | CCC(C)N(CC(C)C)C(=S)SC(NC(C)=O)C(Cl)(Cl)Cl (configuration not stated) | 115
19 | CP(=O)(Nc1ccccn1)Oc1ccc(Cl)cc1 (configuration not stated) | 116
20 | COP1(=S)c2c(C)nn(CCC#N)c2N=C(c2ccc(F)cc2)N1C (configuration not stated) | 97.3
21 | CP(=O)(NC(=O)Nc1ccccc1)Oc1ccccc1 (configuration not stated) | 73.7
22 | Cc1cc(C)cc(OP(C)(=O)Nc2ccc(SC(F)(F)F)cc2)c1 (configuration not stated) | 110
23 | Cc1nc2ccc3ccccc3c2s1.O=[N+]([O-])c1cc([N+](=O)[O-])c(O)c([N+](=O)[O-])c1 | 82.3
24 | CC1(CBr)Cn2c(nc3ccccc3c2=O)S1 (configuration not stated) | 117

Row | SMILES | normalized cell count [%]
25 | CN1CCCCC1COC(=O)C1(O)c2ccccc2CCc2ccccc21 (configuration not stated) | 123
26 | COc1ccccc1OP(C)(=O)Nc1c(C)cccc1C (configuration not stated) | 89.7
27 | CCCOc1ccc(NP(C)(=O)Oc2ccc(Cl)cc2)cc1 (configuration not stated) | 56.1
28 | CP(=O)(Nc1ccc(SC(F)(F)F)cc1)Oc1ccccc1 (configuration not stated) | 173
29 | Cc1ccc(OCC(=O)OC2CN3CCC2CC3)cc1 (configuration not stated) | 102
30 | Cc1nn(-c2ccccc2)c2c1P(=O)(N1CCOCC1)N(C)C(c1ccccc1)=N2 (configuration not stated) | 91.4
31 | COc1cc(C2NCCC3(OCCO3)C2(C)C)cc(OC)c1OC.O=[N+]([O-])c1cc([N+](=O)[O-])c(O)c([N+](=O)[O-])c1 (configuration not stated) | 77.1
32 | O=[N+]([O-])c1ccc2c(c1)nnn2O | 126
33 | CCOP1(=S)c2c(C)nn(CCC#N)c2N=C(c2ccccc2F)N1C (configuration not stated) | 119
34 | O=P(Nc1nccs1)(Oc1ccccc1)Oc1ccccc1 | 105
35 | Cc1cc(C)cc(OP(C)(=O)Nc2ccccn2)c1 (configuration not stated) | 193
36 | Cc1ccc(C)c(NP(C)(=O)Oc2ccccc2)c1 (configuration not stated) | 188
37 | CCOP(=O)(Nc1cccc2ccccc12)OCC | 79
38 | COc1cc(C(=O)NCC2(N3CCOCC3)CCCCC2)cc(Cl)c1OC(C)C | 172
39 | Cc1cccc(OCC(=O)OC2CN3CCC2CC3)c1 (configuration not stated) | 116
40 | Cc1cc(C)cc(OP(C)(=O)Nc2ccc(C)cc2C)c1 (configuration not stated) | 90.2
41 | CCOC(=O)c1ccc(NP(C)(=O)Oc2cc(C)cc(C)c2)cc1 (configuration not stated) | 108
42 | O=C(OCCN1CCN(CCOCc2ccccc2)CC1)C(O)(c1ccccc1)c1ccccc1 | 51.1
43 | CC(C)(C)C(=O)NC(Sc1ccccc1)C(Cl)(Cl)Cl (configuration not stated) | 84
44 | CCC(=O)N1C2C3N(C(=O)CC)C1C1N(C(=O)CC)C(C(N1C(=O)CC)N3C(=O)CC)N2C(=O)CC | 124
45 | CCN(CC)CCCOC(=O)C(O)(c1ccccc1)C1CCCCC1 (configuration not stated) | 86.8
46 | COC(=O)c1cc2c(s1)N=C(c1ccccc1)N(C)P2(=O)N1CCOCC1 (configuration not stated) | 47.4
47 | Cc1ccc(OP(=O)(Nc2ccccn2)Oc2ccc(C)cc2)cc1 | 75.1

Source: PubChem BioAssay AID1273 (Columbia University Molecular Screening Center, 2008)
